This is an account of results in paper PMC5470874.

For the assay, the target named is p53 (human (endogenous in HCT116)) (UniProt P04637). The experiment in a line: co-IP; reciprocal IP: HCT116 nuclear extracts incubated with IgG or DO-1 p53 antibody; immunoblot for Matrin 3. (In general: Immunoblotting shows a protein as a band on a membrane.)

Results are given in words; binding and its absence hold for the method and conditions named. In cells and extracts the contact can be indirect. Some entries that bind do so weakly or less than the wild type.

B1: Matrin 3 (protein, UniProt P43243 1-847)
chain: MSKSFQQSSLSRDSQGHGRDLSAAGIGLLAAATQSLSMPASLGRMNQGTARLASLMNLGMSSSLNQQGAHSALSSASTSSHNLQSIFNIGSRGPLPLSSQHRGDADQASNILASFGLSARDLDELSRYPEDKITPENLPQILLQLKRRRTEEGPTLSYGRDGRSATREPPYRVPRDDWEEKRHFRRDSFDDRGPSLNPVLDYDHGSRSQESGYYDRMDYEDDRLRDGERCRDDSFFGETSHNYHKFDSEYERMGRGPGPLQERSLFEKKRGAPPSSNIEDFHGLLPKGYPHLCSICDLPVHSNKEWSQHINGASHSRRCQLLLEIYPEWNPDNDTGHTMGDPFMLQQSTNPAPGILGPPPPSFHLGGPAVGPRGNLGAGNGNLQGPRHMQKGRVETSRVVHIMDFQRGKNLRYQLLQLVEPFGVISNHLILNKINEAFIEMATTEDAQAAVDYYTTTPALVFGKPVRVHLSQKYKRIKKPEGKPDQKFDQKQELGRVIHLSNLPHSGYSDSAVLKLAEPYGKIKNYILMRMKSQAFIEMETREDAMAMVDHCLKKALWFQGRCVKVDLSEKYKKLVLRIPNRGIDLLKKDKSRKRSYSPDGKESPSDKKSKTDGSQKTESSTEGKEQEEKSGEDGEKDTKDDQTEQEPNMLLESEDELLVDEEEAAALLESGSSVGDETDLANLGDVASDGKKEPSDKAVKKDGSASAAAKKKLKKVDKIEELDQENEAALENGIKNEENTEPGAESSENADDPNKDTSENADGQSDENKDDYTIPDEYRIGPYQPNVPVGIDYVIPKTGFYCKLCSLFYTNEEVAKNTHCSSLPHYQKLKKFLNKLAEERRQKKET
B1: the binding result was “binds”.
